Measured values taken from patent EP2420255A2, “Polypeptide inhibitors of urokinase type plasminogen activator” (Ecole Polytechnique Federale De Lausanne (EPFL), priority 2010, dated 2012).
At least one peptide structure holds a part that was inferred or is arguable (an end, a ring closure or a residue). Numbered stars: 1 amine (or outer) side, 2 acyl side, 3 side chain; on linkers, the order of the positions; unused ones are H or OH. Bridge positions count the residues as written; N and C are the ends. Peptide text beside a SMILES is read from it. TBMB = c1c(C[*:1])cc(C[*:3])cc1C[*:2]

Experiments:
Human trypsin = experiment: Specificity determination of chemically synthesized inhibitors, residual protease activity; assay type: biochemical; conditions: pH 7.4, 25 °C
[1] = test system: MDA-MB-231 human breast adenocarcinoma cells; experiment: Cell invasion assay (Boyden chamber / Matrigel invasion chamber); assay type: cell-based
[2] = test system: human and murine serine proteases that share with human uPA high sequence identities; experiment: Specificity panel, summary statements over several proteases; assay type: biochemical; conditions: IC50s / Kis / concentrations relative to human uPA

CC(C)[C@@H]1NC(=O)[C@H](CCC(=O)O)NC(=O)[C@H](Cc2ccc(O)cc2)NC(=O)[C@H](CCCNC(=N)N)NC(=O)[C@H](CO)NC(=O)[C@@H](NC(=O)[C@H](C)N)CSCc2cc3cc(c2)CSC[C@H](NC(=O)[C@H](CC(=O)O)NC1=O)C(=O)N[C@@H](CCCNC(=N)N)C(=O)NCC(=O)N[C@@H](CCCNC(=N)N)C(=O)NCC(=O)N[C@@H](CO)C(=O)N[C@@H](C)C(=O)N[C@H](C(=O)NCC(N)=O)CSC3 [UK18] (H-ACSRYEVDCRGRGSACG-NH2; linker 2-9-16 via TBMB)
Ki (Human trypsin; calculated with Cheng and Prusoff equation): 34.9 µM
IC50 (Human trypsin; substrate Z-Gly-Gly-Arg-AMC at 50 M): 54.5 µM
concentration needed to half the number of migrated cells ([1]; Boyden chamber assay): 100 M
reduced tumour cell migration ([1]; Boyden chamber assay, concentration dependent): up to 49%
inhibition of invasion ([1]; UK18 0-100 µM, 24 hrs): concentration dependent manner
number of migrated cells ([1]; highest concentration tested (100 M), 24 hrs, percent of untreated control): 49%
selectivity for human uPA over other serine proteases [2]: around 1000 fold
